Source: the supplement of paper PMC10338343
± gives the standard deviation. This is a selection; strong and weak results do not stand in their true shares. Many entries were measured with a wide error. Some of the results follow.

What was measured:
[1] = tested on: MILI (PIWIL2) piRISC loaded with L1MC piRNA (26 nt); experiment: pre-steady-state target cleavage rate (min^-1); higher = faster piRNA-guided slicing of the target; conditions: guide: L1MC piRNA 5'p-UAACUAAAUACUAUGCAAGCUGUAGG;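 note: 1 nM active piRISC with 0.1 nM target library at 33 °C single turnover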
In short: (§1)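 The pre-steady-state cleavage rate was calculated from a burst-and-steady-state fit. Data came from Cleave-'n-Seq, in which […] transcribed, DNA-blocked target RNA library was mixed with 1 nM active affinity-purified piRISC carrying one synthetic guide, with or without 500 nM GTSF1 partner protein, in HEPES–potassium acetate buffer at 33 °C for 0–8 or 0–960 min. Uncleaved targets were sequenced and normalised to depth and to weakly complementary targets, three trials were pooled, and k3 was capped at 0.0001 min^-1.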

[2] = tested on: EfPiwi piRISC loaded with L1MC piRNA (26 nt); experiment: pre-steady-state target cleavage rate (min^-1); guide: L1MC piRNA 5'p-UAACUAAAUACUAUGCAAGCUGUAGG; MIWI and MILI are mouse PIWI proteins and EfPiwi is from a freshwater sponge; tags in brackets are library labels; higher = faster piRNA-guided slicing of the target
In short: as §1

[3] = auxiliary factor: 500 nM mouse GTSF1
[4] = auxiliary factor: none (no GTSF1)
[5] = auxiliary factor: none (no Gtsf1)
[6] = auxiliary factor: 500 nM Ephydatia muelleri Gtsf1

Sequence	pre-steady-state target cleavage rate [1, 3]	pre-steady-state target cleavage rate [1, 4]	pre-steady-state target cleavage rate [2, 5]	pre-steady-state target cleavage rate [2, 6]
UCCUGCAACAGCUUGCAUAGUAUUUUGUUA	0.179 ± 0.023	0.00262 ± 0.0031	0.00026 ± 0.021	–
UCCUCCUACAGCUUGCAAAGUAUUAAGUUA	0.0872 ± 0.014	0.00235 ± 0.0032	–	0.00696 ± 0.0033
UCCUGGAUCAGCUUGCAUAGUAUUAAGAUA	0.0716 ± 0.025	0.00179 ± 0.0034	–	0.006 ± 0.0032
UCCUGGUACAGCAAGCAUAGUAUUUAGUUA	0.232 ± 0.018	0.00852 ± 0.0027	0.000467 ± 0.016	–
UCCUGGAACAGGUUGCAUAGUAUAUAGUUA	0.211 ± 0.023	0.00891 ± 0.0023	–	0.0101 ± 0.0045
UCCUGCUACAGGAAGCAUAGUAUUUAGUUA	0.282 ± 0.014	0.00969 ± 0.0027	–	0.0127 ± 0.0035
UCCUGGAUCAACUUGCAUAGUAUUUAGUUA	0.265 ± 0.017	0.00729 ± 0.0025	–	0.0635 ± 0.018
UCCUGGAUGUCGUUGCAAAGAAUUUAGUUA	0.00111 ± 0.0091	0.00062 ± 0.0069	–	0.00066 ± 0.0098
UCCUCCUACAGCUUGCAAAGUAUUUUGUUA	0.0808 ± 0.011	0.00215 ± 0.0028	–	0.00453 ± 0.0028
UCCUGGUACCAGCUUGCAUAGUAUUUAGUUA	0.276 ± 0.043	0.00866 ± 0.0047	–	0.0109 ± 0.0044
UCCUCCUACAGCAAGCAUAGUAUUUAGUUA	0.281 ± 0.014	0.00806 ± 0.0019	–	0.0493 ± 0.018
UCCUCGUACAGCUUGCAUAGUAAUUAGUUA	0.283 ± 0.017	0.00698 ± 0.0019	–	0.111 ± 0.033
UCCUGGUACGAGCUUGCAUAGUAUUUAGUUA	0.247 ± 0.045	0.0102 ± 0.0039	0.000315 ± 0.062	–
UCCUCCUACAGCUUGCAUACUAUAUAGUUA	0.0619 ± 0.015	0.00157 ± 0.0042	–	0.00278 ± 0.0029
UCCUGGAUGAGCUUACAUAGUAUUUAGUUA	0.153 ± 0.019	0.00591 ± 0.0023	–	0.00581 ± 0.0024
UCCUGGAUCAGCUUGCAUUCUAUUUAGUUA	0.0266 ± 0.0066	0.00119 ± 0.0045	–	0.00166 ± 0.0032
UCCUCCUAGAGGUUGCAUAGUAUUUAGUUA	0.205 ± 0.011	0.00716 ± 0.0022	–	0.0153 ± 0.0029
UCCUGGAUGUCGAUGCAUAGUAUUUUCAUA	0.00311 ± 0.0056	0.000256 ± 0.021	–	0.000606 ± 0.008
UCCUGGUACUGCUUGCAUAGUAUUUAGUAA	0.0986 ± 0.018	0.00264 ± 0.0037	–	0.00428 ± 0.0018
UCCUGCUAAGCUUGCAUAGUAUUUAGUUA	0.182 ± 0.018	0.00403 ± 0.0019	–	0.00771 ± 0.0024
UCCUGGUACAGGUUGCAUAGUAAUUAGUUA	0.325 ± 0.041	0.00664 ± 0.0029	–	0.0027 ± 0.004
UCCUGGAUGUGCUUGCAUAGAAUUUAGAAA	0.00144 ± 0.007	0.00126 ± 0.0038	–	0.000727 ± 0.004
UCCUGGUAGAGGUUGCAUAGUAUUUAGUUA	0.185 ± 0.024	0.0103 ± 0.0031	0.00158 ± 0.0093	–
UCCUGCUACAGCUUCAUAGUAUUUAGUUA	0.231 ± 0.019	0.00508 ± 0.0025	–	0.00994 ± 0.0031

Shown as a markdown table: entries from further up

| Sequence | pre-steady-state target cleavage rate [1, 3] | pre-steady-state target cleavage rate [1, 4] | pre-steady-state target cleavage rate [2, 5] | pre-steady-state target cleavage rate [2, 6] |
| --- | --- | --- | --- | --- |
| UCCUGGAUCAGCUUGCAUAGUAUUAAGAUA | 0.0716 ± 0.025 | 0.00179 ± 0.0034 | – | 0.006 ± 0.0032 |
| UCCUGGUACAGCAAGCAUAGUAUUUAGUUA | 0.232 ± 0.018 | 0.00852 ± 0.0027 | 0.000467 ± 0.016 | – |
| UCCUGGAACAGGUUGCAUAGUAUAUAGUUA | 0.211 ± 0.023 | 0.00891 ± 0.0023 | – | 0.0101 ± 0.0045 |
| UCCUGCUACAGGAAGCAUAGUAUUUAGUUA | 0.282 ± 0.014 | 0.00969 ± 0.0027 | – | 0.0127 ± 0.0035 |
| UCCUGGAUCAACUUGCAUAGUAUUUAGUUA | 0.265 ± 0.017 | 0.00729 ± 0.0025 | – | 0.0635 ± 0.018 |
| UCCUGGAUGUCGUUGCAAAGAAUUUAGUUA | 0.00111 ± 0.0091 | 0.00062 ± 0.0069 | – | 0.00066 ± 0.0098 |
| UCCUCCUACAGCUUGCAAAGUAUUUUGUUA | 0.0808 ± 0.011 | 0.00215 ± 0.0028 | – | 0.00453 ± 0.0028 |
| UCCUGGUACCAGCUUGCAUAGUAUUUAGUUA | 0.276 ± 0.043 | 0.00866 ± 0.0047 | – | 0.0109 ± 0.0044 |
| UCCUCCUACAGCAAGCAUAGUAUUUAGUUA | 0.281 ± 0.014 | 0.00806 ± 0.0019 | – | 0.0493 ± 0.018 |
| UCCUCGUACAGCUUGCAUAGUAAUUAGUUA | 0.283 ± 0.017 | 0.00698 ± 0.0019 | – | 0.111 ± 0.033 |
| UCCUGGUACGAGCUUGCAUAGUAUUUAGUUA | 0.247 ± 0.045 | 0.0102 ± 0.0039 | 0.000315 ± 0.062 | – |

Continuation:

Sequence	pre-steady-state target cleavage rate [1, 3]	pre-steady-state target cleavage rate [1, 4]	pre-steady-state target cleavage rate [2, 5]	pre-steady-state target cleavage rate [2, 6]
UCCUGGUACAGCUUGCAUAAUAUUUAGUUA	0.338 ± 0.068	0.0064 ± 0.0032	–	0.00307 ± 0.0027
UCCUCCUACAGCUUGCAUAGUAAUUACUUA	0.0937 ± 0.025	0.00237 ± 0.0034	–	0.005 ± 0.0027
UCCUCCUAGAGCUUGCAUAGUAAUUAGUUA	0.264 ± 0.029	0.00317 ± 0.0031	–	0.011 ± 0.0039
UCCUGGAUGAGUCUUGCAUAGUAUUUAGUUA	0.105 ± 0.016	0.0093 ± 0.0029	0.000543 ± 0.018	–
UCCUGGAUGAGCUUGGAUAGAAUUUAGUUA	0.0131 ± 0.0067	0.00155 ± 0.0048	–	0.000536 ± 0.0092
UCCUGGAUGUGGCUUGCAUAGUAUUUAGUUA	0.163 ± 0.017	0.0089 ± 0.0042	–	0.0125 ± 0.0049
UCCUGCAACAGCUUGCAUAGUUUUUAGUUA	0.0613 ± 0.0099	0.00354 ± 0.0029	–	0.00727 ± 0.0019
UCCUGGAUGAGCUUGCAUACUAUUUACAAA	0.00213 ± 0.0061	0.000267 ± 0.025	–	0.00184 ± 0.0023
UCCUGGAACAGCUUGCAUAUUAUUUAGUUA	0.0696 ± 0.008	0.00259 ± 0.0029	–	0.0169 ± 0.0055
UCCUCCUUCAGCUUGCAUAGUAAUUAGUUA	0.211 ± 0.021	0.00503 ± 0.002	–	0.0731 ± 0.025
UCCUGGAACAGCUUGCAAAGUAUUUACAAA	0.0328 ± 0.01	0.000645 ± 0.011	–	0.00187 ± 0.0026
UCCUCCUACUGCUUGCAAAGUAUUUAGUUA	0.138 ± 0.011	0.00644 ± 0.0018	–	0.0558 ± 0.017
UCCUGGAUGUGCUUGCAAAGUUUUUAGUUA	0.00595 ± 0.0038	0.0065 ± 0.0023	–	0.000426 ± 0.0088
UCCUGGUACAGCUUGCAUAGUAUUUAGAUA	0.149 ± 0.033	0.00493 ± 0.0028	0.000562 ± 0.02	–
UCCUCCUACAGCUUGCUUAGUAUUUAGAUA	0.15 ± 0.018	0.00198 ± 0.0026	–	0.00689 ± 0.0038
UCCUCCUACAGCUUGCAUAGUAUUUAGAUUA	0.122 ± 0.022	0.00237 ± 0.0032	–	0.0103 ± 0.0044
UCCUGCUACAAGCUUGCAUAGUAUUUAGUUA	0.157 ± 0.015	0.00805 ± 0.002	0.00064 ± 0.0085	–
UCCUGGAUGUCGAUGCUAUAGUAUUUAGUUA	0.000952 ± 0.011	0.000598 ± 0.0091	–	0.0006 ± 0.0077
UCCUGGAACAGACUUGCAUAGUAUUUAGUUA	0.217 ± 0.014	0.00682 ± 0.0024	–	0.0135 ± 0.0042
UCCUGGUACAGCUUGCAUAGAAUUUAGUUA	0.229 ± 0.08	0.00318 ± 0.0042	–	0.00314 ± 0.0023
UCCUGGAUGAGCUUUGCAUAGUAUUUAGUUA	0.181 ± 0.013	0.0103 ± 0.0021	–	0.0107 ± 0.0037
UCCUGCUACAGCUUGCAUAGUUAAUAGUUA	0.0263 ± 0.0097	0.00196 ± 0.0034	–	0.00347 ± 0.0032
UCCUGCUACAGCUAGGAUAGUAUUUAGUUA	0.259 ± 0.015	0.00677 ± 0.0024	–	0.011 ± 0.0037
